The entries are a selection whose mix differs from that of the whole data set.

The chains behind the UniProt entries cited, without tags or fusion partners. Where a name states a change or a piece, a line headed by the entry shows the natural chain unless it says otherwise.
UniProt O75153: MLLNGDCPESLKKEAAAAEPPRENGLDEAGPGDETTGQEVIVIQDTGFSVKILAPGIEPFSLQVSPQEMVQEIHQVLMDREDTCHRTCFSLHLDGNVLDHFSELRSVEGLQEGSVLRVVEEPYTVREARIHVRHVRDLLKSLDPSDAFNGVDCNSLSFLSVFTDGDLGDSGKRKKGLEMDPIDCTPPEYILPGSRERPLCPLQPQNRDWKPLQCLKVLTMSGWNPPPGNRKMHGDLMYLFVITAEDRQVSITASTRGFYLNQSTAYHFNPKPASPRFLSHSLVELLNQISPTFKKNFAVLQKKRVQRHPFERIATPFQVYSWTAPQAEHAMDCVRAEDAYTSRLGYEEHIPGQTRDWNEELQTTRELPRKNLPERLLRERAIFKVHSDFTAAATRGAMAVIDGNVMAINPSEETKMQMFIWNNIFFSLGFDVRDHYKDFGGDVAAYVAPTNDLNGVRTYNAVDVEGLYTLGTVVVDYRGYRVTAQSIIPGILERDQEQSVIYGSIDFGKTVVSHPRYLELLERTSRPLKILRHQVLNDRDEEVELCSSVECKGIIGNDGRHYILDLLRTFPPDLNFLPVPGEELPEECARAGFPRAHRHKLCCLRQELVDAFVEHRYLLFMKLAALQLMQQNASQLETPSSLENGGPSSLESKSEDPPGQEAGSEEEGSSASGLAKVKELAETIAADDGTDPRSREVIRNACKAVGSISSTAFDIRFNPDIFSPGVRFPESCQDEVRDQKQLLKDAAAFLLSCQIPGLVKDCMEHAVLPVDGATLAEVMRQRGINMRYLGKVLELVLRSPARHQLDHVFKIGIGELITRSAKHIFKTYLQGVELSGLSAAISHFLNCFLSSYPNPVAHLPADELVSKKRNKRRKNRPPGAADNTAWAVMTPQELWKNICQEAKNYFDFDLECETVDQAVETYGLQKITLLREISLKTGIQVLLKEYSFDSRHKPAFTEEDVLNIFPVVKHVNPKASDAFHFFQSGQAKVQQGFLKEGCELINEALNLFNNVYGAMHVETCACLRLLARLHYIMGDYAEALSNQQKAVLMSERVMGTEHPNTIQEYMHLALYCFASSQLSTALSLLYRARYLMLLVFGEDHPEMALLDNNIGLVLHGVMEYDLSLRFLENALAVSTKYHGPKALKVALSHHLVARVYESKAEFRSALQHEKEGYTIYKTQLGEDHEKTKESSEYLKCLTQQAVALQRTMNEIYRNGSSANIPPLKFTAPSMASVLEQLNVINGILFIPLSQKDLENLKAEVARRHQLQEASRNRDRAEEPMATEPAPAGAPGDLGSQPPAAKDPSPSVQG
UniProt O75828: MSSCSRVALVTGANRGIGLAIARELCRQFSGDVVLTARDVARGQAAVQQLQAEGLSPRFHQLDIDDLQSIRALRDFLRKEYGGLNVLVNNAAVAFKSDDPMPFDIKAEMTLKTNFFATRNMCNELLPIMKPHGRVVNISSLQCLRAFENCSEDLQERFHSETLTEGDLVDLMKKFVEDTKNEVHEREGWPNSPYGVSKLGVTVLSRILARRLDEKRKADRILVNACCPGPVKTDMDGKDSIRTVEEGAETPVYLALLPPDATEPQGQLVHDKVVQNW
UniProt O75521: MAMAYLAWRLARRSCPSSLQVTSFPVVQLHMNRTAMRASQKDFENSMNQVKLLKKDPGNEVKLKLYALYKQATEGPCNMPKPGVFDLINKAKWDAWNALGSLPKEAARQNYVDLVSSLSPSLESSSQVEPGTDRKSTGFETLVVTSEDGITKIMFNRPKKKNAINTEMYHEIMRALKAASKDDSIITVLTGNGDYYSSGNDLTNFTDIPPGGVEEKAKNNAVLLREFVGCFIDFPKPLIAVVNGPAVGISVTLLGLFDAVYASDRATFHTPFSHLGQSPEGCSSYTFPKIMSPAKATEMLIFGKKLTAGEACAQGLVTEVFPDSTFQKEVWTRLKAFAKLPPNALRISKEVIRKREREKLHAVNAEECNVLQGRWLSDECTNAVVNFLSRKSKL
UniProt O75150, whole entry, looked up: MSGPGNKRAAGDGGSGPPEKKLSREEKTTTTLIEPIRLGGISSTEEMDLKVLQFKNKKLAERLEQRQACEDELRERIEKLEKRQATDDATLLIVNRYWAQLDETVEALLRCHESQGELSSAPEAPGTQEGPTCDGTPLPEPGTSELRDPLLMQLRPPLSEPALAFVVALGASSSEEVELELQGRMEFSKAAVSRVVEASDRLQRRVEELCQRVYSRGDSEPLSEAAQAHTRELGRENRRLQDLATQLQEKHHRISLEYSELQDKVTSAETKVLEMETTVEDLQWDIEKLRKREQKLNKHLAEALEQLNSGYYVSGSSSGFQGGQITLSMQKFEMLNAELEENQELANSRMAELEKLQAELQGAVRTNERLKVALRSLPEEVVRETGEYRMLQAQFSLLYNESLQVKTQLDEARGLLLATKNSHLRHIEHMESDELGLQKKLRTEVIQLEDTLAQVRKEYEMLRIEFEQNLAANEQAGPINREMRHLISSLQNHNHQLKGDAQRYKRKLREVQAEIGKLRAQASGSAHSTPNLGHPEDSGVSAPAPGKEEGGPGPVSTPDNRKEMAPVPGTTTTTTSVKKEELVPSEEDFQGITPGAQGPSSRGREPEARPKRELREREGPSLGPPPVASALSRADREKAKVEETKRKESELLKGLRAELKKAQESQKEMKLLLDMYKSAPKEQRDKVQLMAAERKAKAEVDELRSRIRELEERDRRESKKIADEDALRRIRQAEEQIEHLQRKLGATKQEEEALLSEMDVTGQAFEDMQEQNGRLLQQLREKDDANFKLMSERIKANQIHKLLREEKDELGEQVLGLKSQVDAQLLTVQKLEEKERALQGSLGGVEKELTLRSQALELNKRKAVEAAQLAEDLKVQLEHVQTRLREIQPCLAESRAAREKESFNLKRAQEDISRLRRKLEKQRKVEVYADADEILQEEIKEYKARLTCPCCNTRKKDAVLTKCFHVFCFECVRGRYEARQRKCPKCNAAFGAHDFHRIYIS
UniProt O43896: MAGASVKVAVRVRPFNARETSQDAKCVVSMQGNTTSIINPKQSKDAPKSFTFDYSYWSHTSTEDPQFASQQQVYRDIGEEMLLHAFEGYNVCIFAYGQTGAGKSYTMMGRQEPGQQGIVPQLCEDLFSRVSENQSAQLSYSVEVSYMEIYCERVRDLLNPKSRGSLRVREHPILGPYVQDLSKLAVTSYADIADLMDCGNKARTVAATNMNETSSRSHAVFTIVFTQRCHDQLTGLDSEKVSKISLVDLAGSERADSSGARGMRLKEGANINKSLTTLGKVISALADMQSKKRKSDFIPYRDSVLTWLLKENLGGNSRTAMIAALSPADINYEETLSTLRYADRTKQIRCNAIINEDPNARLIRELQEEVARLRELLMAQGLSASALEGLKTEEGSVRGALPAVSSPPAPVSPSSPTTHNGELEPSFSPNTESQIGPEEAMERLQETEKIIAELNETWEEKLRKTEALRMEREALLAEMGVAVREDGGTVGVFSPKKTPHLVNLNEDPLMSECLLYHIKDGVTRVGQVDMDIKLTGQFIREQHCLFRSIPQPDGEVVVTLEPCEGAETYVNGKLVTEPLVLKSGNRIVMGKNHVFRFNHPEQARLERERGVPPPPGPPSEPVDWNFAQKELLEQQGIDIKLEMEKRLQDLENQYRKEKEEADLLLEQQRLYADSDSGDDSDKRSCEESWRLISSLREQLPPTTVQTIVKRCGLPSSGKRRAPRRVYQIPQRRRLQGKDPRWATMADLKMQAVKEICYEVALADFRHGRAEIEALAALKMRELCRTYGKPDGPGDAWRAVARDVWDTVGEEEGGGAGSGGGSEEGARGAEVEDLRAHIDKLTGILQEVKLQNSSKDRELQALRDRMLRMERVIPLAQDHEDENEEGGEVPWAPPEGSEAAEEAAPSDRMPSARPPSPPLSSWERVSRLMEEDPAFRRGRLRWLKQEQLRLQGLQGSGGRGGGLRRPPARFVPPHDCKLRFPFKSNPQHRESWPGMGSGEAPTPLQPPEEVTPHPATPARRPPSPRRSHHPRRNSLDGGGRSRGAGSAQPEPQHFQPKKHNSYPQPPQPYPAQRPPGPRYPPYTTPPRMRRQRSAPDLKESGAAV
UniProt O75376, whole entry, looked up: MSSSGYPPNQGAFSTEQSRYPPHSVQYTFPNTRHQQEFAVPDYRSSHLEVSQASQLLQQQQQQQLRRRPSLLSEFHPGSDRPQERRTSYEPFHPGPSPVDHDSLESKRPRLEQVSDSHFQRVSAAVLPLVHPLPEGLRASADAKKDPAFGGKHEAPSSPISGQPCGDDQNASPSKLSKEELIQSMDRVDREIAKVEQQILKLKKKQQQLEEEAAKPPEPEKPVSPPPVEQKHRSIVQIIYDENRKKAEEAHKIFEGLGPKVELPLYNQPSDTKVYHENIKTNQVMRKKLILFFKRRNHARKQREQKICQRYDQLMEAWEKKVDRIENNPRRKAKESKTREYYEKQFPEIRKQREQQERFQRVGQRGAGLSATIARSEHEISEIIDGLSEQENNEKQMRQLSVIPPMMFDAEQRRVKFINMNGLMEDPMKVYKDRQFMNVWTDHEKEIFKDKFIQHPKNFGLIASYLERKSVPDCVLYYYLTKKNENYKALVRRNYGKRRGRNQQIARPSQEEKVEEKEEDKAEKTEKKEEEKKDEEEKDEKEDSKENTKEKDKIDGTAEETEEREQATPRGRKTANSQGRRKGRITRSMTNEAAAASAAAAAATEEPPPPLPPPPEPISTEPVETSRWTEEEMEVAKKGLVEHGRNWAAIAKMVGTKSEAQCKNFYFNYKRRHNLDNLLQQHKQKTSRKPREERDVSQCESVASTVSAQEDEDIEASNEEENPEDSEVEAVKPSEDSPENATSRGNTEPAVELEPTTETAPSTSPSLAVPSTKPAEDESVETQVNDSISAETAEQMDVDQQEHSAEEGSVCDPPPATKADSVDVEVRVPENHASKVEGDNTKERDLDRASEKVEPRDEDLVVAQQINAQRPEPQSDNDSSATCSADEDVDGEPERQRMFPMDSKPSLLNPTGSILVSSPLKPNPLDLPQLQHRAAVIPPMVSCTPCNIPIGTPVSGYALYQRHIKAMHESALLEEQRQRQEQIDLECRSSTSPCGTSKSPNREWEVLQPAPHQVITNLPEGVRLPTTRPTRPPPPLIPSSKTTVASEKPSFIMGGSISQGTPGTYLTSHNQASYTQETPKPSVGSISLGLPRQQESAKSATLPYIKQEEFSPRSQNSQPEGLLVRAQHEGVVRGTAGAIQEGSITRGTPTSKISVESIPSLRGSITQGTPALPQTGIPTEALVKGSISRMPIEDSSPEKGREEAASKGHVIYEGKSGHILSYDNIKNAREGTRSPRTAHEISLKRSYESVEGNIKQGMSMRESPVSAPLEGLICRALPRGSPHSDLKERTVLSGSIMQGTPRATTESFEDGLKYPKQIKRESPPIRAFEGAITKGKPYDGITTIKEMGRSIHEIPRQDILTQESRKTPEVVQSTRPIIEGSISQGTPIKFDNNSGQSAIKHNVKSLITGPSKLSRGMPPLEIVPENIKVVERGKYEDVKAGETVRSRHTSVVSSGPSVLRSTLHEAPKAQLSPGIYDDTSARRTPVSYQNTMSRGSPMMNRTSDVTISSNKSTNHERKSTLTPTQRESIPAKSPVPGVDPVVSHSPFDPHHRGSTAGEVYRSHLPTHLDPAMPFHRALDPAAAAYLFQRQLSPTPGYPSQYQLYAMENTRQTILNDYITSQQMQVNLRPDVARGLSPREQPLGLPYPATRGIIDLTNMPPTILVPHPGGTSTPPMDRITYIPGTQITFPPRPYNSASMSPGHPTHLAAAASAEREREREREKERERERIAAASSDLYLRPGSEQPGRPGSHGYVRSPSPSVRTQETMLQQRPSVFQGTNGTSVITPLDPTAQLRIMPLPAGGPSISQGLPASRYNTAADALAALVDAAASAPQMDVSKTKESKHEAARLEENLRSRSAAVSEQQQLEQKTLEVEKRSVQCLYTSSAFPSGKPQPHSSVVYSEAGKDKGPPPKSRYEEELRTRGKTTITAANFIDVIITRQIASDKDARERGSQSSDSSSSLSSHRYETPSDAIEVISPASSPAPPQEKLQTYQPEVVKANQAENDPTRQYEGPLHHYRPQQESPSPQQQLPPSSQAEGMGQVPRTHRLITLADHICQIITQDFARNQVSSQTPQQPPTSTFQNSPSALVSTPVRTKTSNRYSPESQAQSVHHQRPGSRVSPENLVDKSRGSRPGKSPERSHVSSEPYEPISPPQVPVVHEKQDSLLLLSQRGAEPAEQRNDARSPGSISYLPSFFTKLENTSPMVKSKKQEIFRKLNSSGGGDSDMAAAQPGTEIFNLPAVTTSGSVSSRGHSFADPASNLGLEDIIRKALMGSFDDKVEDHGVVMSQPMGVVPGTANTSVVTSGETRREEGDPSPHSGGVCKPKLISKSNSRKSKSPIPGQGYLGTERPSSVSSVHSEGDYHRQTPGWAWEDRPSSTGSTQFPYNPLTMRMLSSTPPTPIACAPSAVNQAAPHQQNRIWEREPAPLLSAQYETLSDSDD

Consider 15 targets from the supplement of paper PMC11006884.

Compound in the test: COC(=O)C#Cc1ccccc1 [methyl 3-phenylpropiolate]
Put plainly: log2 ratio of iodoacetamide-alkyne labeling of the cysteine site, DMSO over compound (competition); higher = stronger covalent engagement of the cysteine by the compound, active = 1 or more. Particulars: 500 µM; treatment time 1 h; system: HEK293T cell lysate. In short, it runs like this: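 Reporter intensities give each cysteine's log2 competition ratio as the mean of control channels over the mean of compound channels. The samples were HEK293T lysate (2 mg/mL) given vehicle or electrophile (500 µM, 1 h, ambient temperature), then iodoacetamide alkyne (1 h), followed by click coupling to sCIP-TMT reagents, pooling, trypsin digestion overnight at 37 °C, streptavidin enrichment, acid elution, Orbitrap Eclipse LC-MS/MS with FAIMS and FragPipe quantification. Duplicate channels and three replicates were run, and cysteines quantified in only one replicate were discarded.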
For ASNA1 C205 (UniProt O43681), the “log2 ratio of iodoacetamide-alkyne labeling” value (from here on “log2 ratio”) was inactive: 0.126. With ACTN4 C60 (UniProt O43707) the figure was inactive: 0.0407. The figure for UniProt O75153_C1196 is inactive: 0.492; for NCK2 C297 (UniProt O43639) it is inactive: 0.211. The figure for ZW10 C568 (UniProt O43264) is inactive: 0.37. Turning to EXOC3 C465 (UniProt O60645), the “log2 ratio” value is inactive: 0.271. Regarding CBR3 C143 (UniProt O75828), the “log2 ratio” value was inactive: 0.0488.

With FLNB C2556 (UniProt O75369), the “log2 ratio” value was inactive: 0.079.

On to UniProt O75521_C312, for which the “log2 ratio” value is inactive: 0.431. Consider RNF40 C950 (UniProt O75150), for which the “log2 ratio” value is inactive: 0.129. With ZNF292 C1564 (UniProt O60281) the figure was inactive: 0.493; with KIF1C C198 (UniProt O43896), inactive: 0.155. For the target ROCK2 C330 (UniProt O75116), the “log2 ratio” value was inactive: 0.0935. For the target ZFAND5 C76 (UniProt O76080), the “log2 ratio” value is inactive: 0.28. The figure for NCOR1 C474 (UniProt O75376) is inactive: 0.759.
